This is one part of the list. Shown are side measurements of this screen, not its main read-out; they come without a call. Most of these compounds were active or inconclusive in the main read-out, so they are no random draw. Words in brackets tell the shape of the fitted curve; partial curves, single points and poor fits give uncertain potencies.
Test: qHTS Assay for Lipid Storage Modulators in Drosophila S3 Cells;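 for cell number change: cells counted by Cell Tracker Red CMTPX staining in the red channel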
Settings: BODIPY lipid droplet fluorescence, 18-24 h; for cell number change: measured here: cell count max response, cells fed with added oleic acid
In short: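 Drosophila S3 cells got compounds at several concentrations plus oleic acid (400 uM solution). Laser-scanning cytometry with 488 nm excitation read lipid droplets at 500-530 nm and cells at 575-640 nm. Percent activity was relative to 20 uM Triacsin C.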

[1] = measured here: lipid fluorescence (Fed channel) AC50, cells fed with added oleic acid
[2] = measured here: cell number channel AC50, cells fed with added oleic acid

Row | Structure (SMILES) | cell number change [%] | AC50 [1] | AC50 [2]
1 | O=[N+]([O-])c1cccc(CN2CCN(S(=O)(=O)Cc3ccccc3)CC2)c1 | -18.9 | 0.58 µM [falling, single point] | 
2 | CCN(CC)S(=O)(=O)c1cccc(NC(=O)c2cccc(S(=O)(=O)N3CCCC3)c2)c1 | 7.07 | 0.0116 µM [falling, full curve, poor fit] | 
3 | NC(=O)c1ccc[n+](Cc2cccc3ccccc23)c1 | 15.8 |  | 0.146 µM [falling, full curve, poor fit]
4 | CC(C)Cn1c(-c2cccs2)nc2ccccc21 | 12.6 | 0.146 µM [rising, full curve] | 
5 | Clc1ccc(Nc2nc3cccnc3s2)cc1 | 46 |  | 2.06 µM [falling, single point]
6 | Cc1ccc(C2c3c(oc4ccccc4c3=O)C(=O)N2CCCN2CCOCC2)o1 (stereo not drawn) | 10.8 | 18.4 µM [falling, partial curve] | 
7 | O=[N+]([O-])c1ccc(Cl)cc1Sc1ccccn1 |  | 29.1 µM [falling, single point] | 
8 | CC12CCC(C(=O)N3CCOCC3)([C@H](Br)C1=O)C2(C)C (stereo partly drawn) | -37.3 | 7.31 µM [falling, partial curve] | 25.9 µM [falling, partial curve, poor fit]
9 | CCOc1ccc(C(=O)COC(=O)c2c(-c3ccccc3)noc2C)cc1 |  | 6.51 µM [rising, single point] | 
10 | Cc1ccc(CNn2cnnc2SCC(=O)NC(C)(C)C)cc1 | 17.1 | 4.61 µM [falling, single point] | 
11 | COc1cc(NC(=O)C(C)Oc2ccccc2)c(OC)cc1NC(=O)c1ccccc1 (stereo not drawn) | -39.4 | 23.1 µM [falling, single point] | 20.6 µM [falling, single point]
12 | CCOC(=O)c1c(C)c(C(=O)NCc2ccccn2)c(C)n1CC |  | 4.11 µM [rising, partial curve, poor fit] | 5.8 µM [rising, single point]
13 | CC(C)OCCCNc1nc2c(c(=O)n(Cc3ccccc3F)c(=O)n2C)n1C | 40.2 | 18.4 µM [rising, partial curve] | 1.3 µM [rising, full curve]
14 | O=C(c1c[nH]c2ccccc12)N1CCN(c2ccccc2)CC1 | 21.6 | 5.8 µM [rising, full curve, poor fit] | 
15 | O=C(NCc1cccs1)C1CCCN1S(=O)(=O)c1ccccc1F (stereo not drawn) | 1.89 |  | 
16 | O=C(c1ccccc1)N1CCN(c2ccc(Cl)cc2)CC1 | -33.8 | 25.9 µM [falling, single point] | 16.4 µM [falling, partial curve, poor fit]

Retrieved one by one from the list above (two):
Row | Structure (SMILES) | cell number change [%] | AC50 [1] | AC50 [2]
13 | CC(C)OCCCNc1nc2c(c(=O)n(Cc3ccccc3F)c(=O)n2C)n1C | 40.2 | 18.4 µM [rising, partial curve] | 1.3 µM [rising, full curve]
8 | CC12CCC(C(=O)N3CCOCC3)([C@H](Br)C1=O)C2(C)C (stereo partly drawn) | -37.3 | 7.31 µM [falling, partial curve] | 25.9 µM [falling, partial curve, poor fit]

Source: PubChem BioAssay AID2685 (National Center for Advancing Translational Sciences (NCATS), 2010)
